Experimental data: PubChem BioAssay AID1159579 (Peter MacCallum Cancer Centre, 2015)

Aim: 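Find genes whose silencing alters migration of lymphatic endothelial cells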 (follow-up of hits)
Cell system: human dermal lymphatic endothelial cells
Reagents: single siRNA against human genes, 25 nM
Detection: 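Scratch wound imaging measuring area filled by moving cells plus nuclei number, averaged over two wells and scaled to mock-transfected controls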
Reading the numbers: migration relative to mock: higher = more migration into the scratch; mean nuclei count: higher = more cells remaining
Call rule: 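a ratio of at most 0.6 or at least 1.3 marks altered migration and an active call; a mean nuclei count under 3300 forces an inactive call regardless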
Meaning of the calls: active = migration changed (impaired or accelerated); inactive = no migration change, or too few cells
The deposit covers about 2,000 reagents; below is an unselected part. Of all reagents, 549 (27%) were called active. 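Some migration ratios are negative; siRNAs with too few cells are inactive whatever their migration ratio.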 Reagents against one gene are numbered here. Not all columns of the deposit are shown. The record does not give: the time to read-out.

Target gene,reagent no.,migration relative to mock,mean nuclei count,Outcome
DPYSL2,1,-0.32,2753,inactive
DPYSL2,2,0.71,5105,inactive
DPYSL2,3,0.62,4280,inactive
DPYSL2,4,0.94,3975,inactive
DLX1,1,0.66,4815,inactive
DLX1,2,0.62,4753,inactive
DLX1,3,0.68,5384,inactive
DLX1,4,0.72,5314,inactive
PLCG1,1,0.44,4699,active
PLCG1,2,0.49,6219,active
PLCG1,3,0.68,4880,inactive
PLCG1,4,0.63,5812,inactive
LRCH1,1,1.11,6230,inactive
LRCH1,2,0.73,4002,inactive
LRCH1,3,1.22,6499,inactive
LRCH1,4,1.16,4962,inactive
GH1,1,1.1,5684,inactive
GH1,2,0.66,4155,inactive
GH1,3,0.55,4814,active
GH1,4,0.5,5502,active
BRD7,1,0.93,5326,inactive
BRD7,2,0.62,3175,inactive
BRD7,3,1.15,5629,inactive
BRD7,4,0.74,5224,inactive
PSEN2,1,0.3,5232,active
PSEN2,2,0.7,7498,inactive
PSEN2,3,0.54,5973,active
PSEN2,4,0.6,5054,active
